Source: US12419871B2, “Biomolecules involved in Alzheimer's disease” (ELECTROPHORETICS LIMITED, priority 2015, dated 2025)

B1: Q86UN3 (protein, UniProt Q86UN3 1-420, looked up)
chain: MLPGLRRLLQAPASACLLLMLLALPLAAPSCPMLCTCYSSPPTVSCQANNFSSVPLSLPPSTQRLFLQNNLIRTLRPGTFGSNLLTLWLFSNNLSTIYPGTFRHLQALEELDLGDNRHLRSLEPDTFQGLERLQSLHLYRCQLSSLPGNIFRGLVSLQYLYLQENSLLHLQDDLFADLANLSHLFLHGNRLRLLTEHVFRGLGSLDRLLLHGNRLQGVHRAAFRGLSRLTILYLFNNSLASLPGEALADLPSLEFLRLNANPWACDCRARPLWAWFQRARVSSSDVTCATPPERQGRDLRALREADFQACPPAAPTRPGSRARGNSSSNHLYGVAEAGAPPADPSTLYRDLPAEDSRGRQGGDAPTEDDYWGGYGGEDQRGEQMCPGAACQAPPDSRGPALSAGLPSPLLCLLLLVPHHL
modifications: full-length
B2: Q92900 (protein, UniProt Q92900 1-1129, looked up)
chain: MSVEAYGPSSQTLTFLDTEEAELLGADTQGSEFEFTDFTLPSQTQTPPGGPGGPGGGGAGGPGGAGAGAAAGQLDAQVGPEGILQNGAVDDSVAKTSQLLAELNFEEDEEDTYYTKDLPIHACSYCGIHDPACVVYCNTSKKWFCNGRGNTSGSHIVNHLVRAKCKEVTLHKDGPLGETVLECYNCGCRNVFLLGFIPAKADSVVVLLCRQPCASQSSLKDINWDSSQWQPLIQDRCFLSWLVKIPSEQEQLRARQITAQQINKLEELWKENPSATLEDLEKPGVDEEPQHVLLRYEDAYQYQNIFGPLVKLEADYDKKLKESQTQDNITVRWDLGLNKKRIAYFTLPKTDSGNEDLVIIWLRDMRLMQGDEICLRYKGDLAPLWKGIGHVIKVPDNYGDEIAIELRSSVGAPVEVTHNFQVDFVWKSTSFDRMQSALKTFAVDETSVSGYIYHKLLGHEVEDVIIKCQLPKRFTAQGLPDLNHSQVYAVKTVLQRPLSLIQGPPGTGKTVTSATIVYHLARQGNGPVLVCAPSNIAVDQLTEKIHQTGLKVVRLCAKSREAIDSPVSFLALHNQIRNMDSMPELQKLQQLKDETGELSSADEKRYRALKRTAERELLMNADVICCTCVGAGDPRLAKMQFRSILIDESTQATEPECMVPVVLGAKQLILVGDHCQLGPVVMCKKAAKAGLSQSLFERLVVLGIRPIRLQVQYRMHPALSAFPSNIFYEGSLQNGVTAADRVKKGFDFQWPQPDKPMFFYVTQGQEEIASSGTSYLNRTEAANVEKITTKLLKAGAKPDQIGIITPYEGQRSYLVQYMQFSGSLHTKLYQEVEIASVDAFQGREKDFIILSCVRANEHQGIGFLNDPRRLNVALTRARYGVIIVGNPKALSKQPLWNHLLNYYKEQKVLVEGPLNNLRESLMQFSKPRKLVNTINPGARFMTTAMYDAREAIIPGSVYDRSSQGRPSSMYFQTHDQIGMISAGPSHVAAMNIPIPFNLVMPPMPPPGYFGQANGPAAGRGTPKGKTGRGGRQKNRFGLPGPSQTNLPNSQASQDVASQPFSQGALTQGYISMSQPSQMSQPGLSQPELSQDSYLGDEFKSQIDVALSQDSTYQGERAYQHGGVTGLSQY
modifications: full-length
B3: Q15293 (protein, UniProt Q15293 1-331, looked up)
chain: MARGGRGRRLGLALGLLLALVLAPRVLRAKPTVRKERVVRPDSELGERPPEDNQSFQYDHEAFLGKEDSKTFDQLTPDESKERLGKIVDRIDNDGDGFVTTEELKTWIKRVQKRYIFDNVAKVWKDYDRDKDDKISWEEYKQATYGYYLGNPAEFHDSSDHHTFKKMLPRDERRFKAADLNGDLTATREEFTAFLHPEEFEHMKEIVVLETLEDIDKNGDGFVDQDEYIADMFSHEENGPEPDWVLSEREQFNEFRDLNKDGKLDKDEIRHWILPQDYDHAQAEARHLVYESDKNKDEKLTKEEILENWNMFVGSQATNYGEDLTKNHDEL
modifications: full-length
B4: Q15493 (protein, UniProt Q15493 1-299, looked up)
chain: MSSIKIECVLPENCRCGESPVWEEVSNSLLFVDIPAKKVCRWDSFTKQVQRVTMDAPVSSVALRQSGGYVATIGTKFCALNWKEQSAVVLATVDNDKKNNRFNDGKVDPAGRYFAGTMAEETAPAVLERHQGALYSLFPDHHVKKYFDQVDISNGLDWSLDHKIFYYIDSLSYSVDAFDYDLQTGQISNRRSVYKLEKEEQIPDGMCIDAEGKLWVACYNGGRVIRLDPVTGKRLQTVKLPVDKTTSCCFGGKNYSEMYVTCARDGMDPEGLLRQPEAGGIFKITGLGVKGIAPYSYAG
modifications: full-length

test: TMTcalibrator quantification of regulated proteins in AD CSF versus control; set-up: species or system human; conditions: CSF of AD patient versus control; non-modified peptides of each protein summed for three control and three AD cases

First: B1
Second: B2
The “Log2 AD/Control” value of the first is higher: 1.18 for the first, 0.80 for the second.

Going from B3 to B4, the “Log2 AD/Control” value rises from 1.35 to 1.91.
